# Measured values: the supplement of paper PMC8728848
# The list shows a part of the results.
# Experiments:
# Test in all cases: glycan array binding signal (z-score within array); higher = stronger binding
# Details in all cases: glycan notation: IUPAC condensed, linker removed
# [1] = target: Gal(b1-4)GlcNAc(b1-2)[Gal(b1-4)GlcNAc(b1-6)]Man(a1-6)[Gal(b1-4)GlcNAc(b1-2)Man(a1-3)]Man(b1-4)GlcNAc(b1-4)[Fuc(a1-6)]GlcNAc
# In short: (§1)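 Glycan array binding is given as a within-array Z-score, which can be read as non-binding when negative. The arrays, 3228 of them, came from the Consortium for Functional Glycomics database and were retained only where the protein sequence was available. Z-scores were averaged across arrays of the same protein sequence at different concentrations or buffers and across linkers.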
# [2] = target: Gal(b1-4)GlcNAc(b1-2)[Gal(b1-4)GlcNAc(b1-6)]Man(a1-6)[GlcNAc(b1-4)][Gal(b1-4)GlcNAc(b1-2)Man(a1-3)]Man(b1-4)GlcNAc(b1-4)GlcNAc
# In short: as §1
# [3] = target: Gal(b1-4)GlcNAc(b1-2)[Gal(b1-4)GlcNAc(b1-6)]Man(a1-6)[GlcNAc(b1-4)][Gal(b1-4)GlcNAc(b1-2)[Gal(b1-4)GlcNAc(b1-4)]Man(a1-3)]Man(b1-4)GlcNAc(b1-4)[Fuc(a1-6)]GlcNAc
# In short: as §1
# [4] = target: Gal(b1-4)GlcNAc(b1-3)Gal(b1-3)GalNAc
# In short: as §1
# [5] = target: Gal(b1-4)GlcNAc(b1-3)Gal(b1-3)GlcNAc
# In short: as §1
# [6] = target: Gal(b1-4)GlcNAc(b1-3)Gal(b1-4)Glc
# In short: as §1
# [7] = target: Gal(b1-4)GlcNAc(b1-3)Gal(b1-4)GlcNAc
# In short: as §1
# [8] = target: Gal(b1-4)GlcNAc(b1-3)Gal(b1-4)GlcNAc(b1-2)Man(a1-3)[Gal(b1-4)GlcNAc(b1-3)Gal(b1-4)GlcNAc(b1-2)Man(a1-6)]Man(b1-4)GlcNAc(b1-4)GlcNAc
# In short: as §1
# [9] = target: Gal(b1-4)GlcNAc(b1-3)Gal(b1-4)GlcNAc(b1-2)Man(a1-3)[Gal(b1-4)GlcNAc(b1-3)Gal(b1-4)GlcNAc(b1-2)Man(a1-6)]Man(b1-4)GlcNAc(b1-4)[Fuc(a1-6)]GlcNAc
# In short: as §1
# [10] = target: Gal(b1-4)GlcNAc(b1-3)Gal(b1-4)GlcNAc(b1-2)[Gal(b1-4)GlcNAc(b1-3)Gal(b1-4)GlcNAc(b1-6)]Man(a1-6)[Gal(b1-4)GlcNAc(b1-3)Gal(b1-4)GlcNAc(b1-2)Man(a1-3)]Man(b1-4)GlcNAc(b1-4)GlcNAc
# In short: as §1
# [11] = target: Gal(b1-4)GlcNAc(b1-3)Gal(b1-4)GlcNAc(b1-2)[Gal(b1-4)GlcNAc(b1-3)Gal(b1-4)GlcNAc(b1-6)]Man(a1-6)[Gal(b1-4)GlcNAc(b1-3)Gal(b1-4)GlcNAc(b1-2)Man(a1-3)]Man(b1-4)GlcNAc(b1-4)[Fuc(a1-6)]GlcNAc
# In short: as §1
# [12] = target: Gal(b1-4)GlcNAc(b1-3)Gal(b1-4)GlcNAc(b1-3)Gal(b1-4)GlcNAc
# In short: as §1
# [13] = target: Gal(b1-4)GlcNAc(b1-3)Gal(b1-4)GlcNAc(b1-3)Gal(b1-4)GlcNAc(b1-2)Man(a1-3)[Gal(b1-4)GlcNAc(b1-3)Gal(b1-4)GlcNAc(b1-3)Gal(b1-4)GlcNAc(b1-2)Man(a1-6)]Man(b1-4)GlcNAc(b1-4)GlcNAc
# In short: as §1
# [14] = target: Gal(b1-4)GlcNAc(b1-3)Gal(b1-4)GlcNAc(b1-3)Gal(b1-4)GlcNAc(b1-2)Man(a1-3)[Gal(b1-4)GlcNAc(b1-3)Gal(b1-4)GlcNAc(b1-3)Gal(b1-4)GlcNAc(b1-2)Man(a1-6)]Man(b1-4)GlcNAc(b1-4)[Fuc(a1-6)]GlcNAc
# In short: as §1
# [15] = target: Gal(b1-4)GlcNAc(b1-3)Gal(b1-4)GlcNAc(b1-3)Gal(b1-4)GlcNAc(b1-2)[Gal(b1-4)GlcNAc(b1-3)Gal(b1-4)GlcNAc(b1-3)Gal(b1-4)GlcNAc(b1-6)]Man(a1-6)[Gal(b1-4)GlcNAc(b1-3)Gal(b1-4)GlcNAc(b1-3)Gal(b1-4)GlcNAc(b1-2)Man(a1-3)]Man(b1-4)GlcNAc(b1-4)[Fuc(a1-6)]GlcNAc
# In short: as §1
# [16] = target: Gal(b1-4)GlcNAc(b1-3)Gal(b1-4)GlcNAc(b1-3)Gal(b1-4)GlcNAc(b1-3)Gal(b1-4)GlcNAc(b1-2)Man(a1-3)[Gal(b1-4)GlcNAc(b1-3)Gal(b1-4)GlcNAc(b1-3)Gal(b1-4)GlcNAc(b1-3)Gal(b1-4)GlcNAc(b1-2)Man(a1-6)]Man(b1-4)GlcNAc(b1-4)GlcNAc
# In short: as §1
# [17] = target: Gal(b1-4)GlcNAc(b1-3)Gal(b1-4)GlcNAc(b1-3)Gal(b1-4)GlcNAc(b1-3)Gal(b1-4)GlcNAc(b1-2)Man(a1-3)[Gal(b1-4)GlcNAc(b1-3)Gal(b1-4)GlcNAc(b1-3)Gal(b1-4)GlcNAc(b1-3)Gal(b1-4)GlcNAc(b1-2)Man(a1-6)]Man(b1-4)GlcNAc(b1-4)[Fuc(a1-6)]GlcNAc
# In short: as §1
# [18] = target: Gal(b1-4)GlcNAc(b1-3)Gal(b1-4)GlcNAc(b1-3)Gal(b1-4)GlcNAc(b1-3)Gal(b1-4)GlcNAc(b1-2)[Gal(b1-4)GlcNAc(b1-3)Gal(b1-4)GlcNAc(b1-3)Gal(b1-4)GlcNAc(b1-3)Gal(b1-4)GlcNAc(b1-6)]Man(a1-6)[Gal(b1-4)GlcNAc(b1-3)Gal(b1-4)GlcNAc(b1-3)Gal(b1-4)GlcNAc(b1-3)Gal(b1-4)GlcNAc(b1-2)Man(a1-3)]Man(b1-4)GlcNAc(b1-4)[Fuc(a1-6)]GlcNAc
# In short: as §1
# [19] = target: Gal(b1-4)GlcNAc(b1-3)Gal(b1-4)GlcNAc(b1-3)Gal(b1-4)GlcNAc(b1-3)Gal(b1-4)GlcNAc(b1-3)Gal(b1-4)GlcNAc(b1-2)Man(a1-3)[Gal(b1-4)GlcNAc(b1-3)Gal(b1-4)GlcNAc(b1-3)Gal(b1-4)GlcNAc(b1-3)Gal(b1-4)GlcNAc(b1-3)Gal(b1-4)GlcNAc(b1-2)Man(a1-6)]Man(b1-4)GlcNAc(b1-4)GlcNAc
# In short: as §1
# [20] = target: Gal(b1-4)GlcNAc(b1-3)Gal(b1-4)GlcNAc(b1-3)Gal(b1-4)GlcNAc(b1-3)Gal(b1-4)GlcNAc(b1-3)Gal(b1-4)GlcNAc(b1-2)Man(a1-3)[Gal(b1-4)GlcNAc(b1-3)Gal(b1-4)GlcNAc(b1-3)Gal(b1-4)GlcNAc(b1-3)Gal(b1-4)GlcNAc(b1-3)Gal(b1-4)GlcNAc(b1-2)Man(a1-6)]Man(b1-4)GlcNAc(b1-4)[Fuc(a1-6)]GlcNAc
# In short: as §1
# [21] = target: Gal(b1-4)GlcNAc(b1-3)Gal(b1-4)GlcNAc(b1-3)Gal(b1-4)GlcNAc(b1-3)Gal(b1-4)GlcNAc(b1-3)Gal(b1-4)GlcNAc(b1-2)[Gal(b1-4)GlcNAc(b1-3)Gal(b1-4)GlcNAc(b1-3)Gal(b1-4)GlcNAc(b1-3)Gal(b1-4)GlcNAc(b1-3)Gal(b1-4)GlcNAc(b1-6)]Man(a1-6)[Gal(b1-4)GlcNAc(b1-3)Gal(b1-4)GlcNAc(b1-3)Gal(b1-4)GlcNAc(b1-3)Gal(b1-4)GlcNAc(b1-3)Gal(b1-4)GlcNAc(b1-2)Man(a1-3)]Man(b1-4)GlcNAc(b1-4)[Fuc(a1-6)]GlcNAc
# In short: as §1
# [22] = target: Gal(b1-4)GlcNAc(b1-3)Gal(b1-4)GlcNAc(b1-3)Gal(b1-4)GlcNAc(b1-3)Gal(b1-4)GlcNAc(b1-3)Gal(b1-4)GlcNAc(b1-3)Gal(b1-4)GlcNAc(b1-2)Man(a1-3)[Gal(b1-4)GlcNAc(b1-3)Gal(b1-4)GlcNAc(b1-3)Gal(b1-4)GlcNAc(b1-3)Gal(b1-4)GlcNAc(b1-3)Gal(b1-4)GlcNAc(b1-3)Gal(b1-4)GlcNAc(b1-2)Man(a1-6)]Man(b1-4)GlcNAc(b1-4)GlcNAc
# In short: as §1
# [23] = target: Gal(b1-4)GlcNAc(b1-3)Gal(b1-4)GlcNAc(b1-3)GalNAc
# In short: as §1
# [24] = target: Gal(b1-4)GlcNAc(b1-3)Gal(b1-4)GlcNAc(b1-3)[Gal(b1-4)GlcNAc(b1-3)Gal(b1-4)GlcNAc(b1-6)]GalNAc
# In short: as §1
# [25] = target: Gal(b1-4)GlcNAc(b1-3)Gal(b1-4)GlcNAc(b1-6)[Gal(b1-3)]GalNAc
# In short: as §1
# [26] = target: Gal(b1-4)GlcNAc(b1-3)Gal(b1-4)[Fuc(a1-3)]GlcNAc(b1-3)Gal(b1-4)[Fuc(a1-3)]GlcNAc
# In short: as §1
# [27] = target: Gal(b1-4)GlcNAc(b1-3)GalNAc
# In short: as §1
# [28] = target: Gal(b1-4)GlcNAc(b1-3)[Fuc(a1-3)GlcNAc(b1-6)]Gal(b1-4)Glc
# In short: as §1
# [29] = target: Gal(b1-4)GlcNAc(b1-3)[Gal(b1-4)GlcNAc(b1-6)]Gal(b1-4)GlcNAc
# In short: as §1
# [30] = target: Gal(b1-4)GlcNAc(b1-3)[GlcNAc(b1-6)]Gal(b1-4)GlcNAc
# In short: as §1
# [31] = target: Gal(b1-4)GlcNAc(b1-6)Gal(b1-4)GlcNAc
# In short: as §1
# [32] = target: Gal(b1-4)GlcNAc(b1-6)GalNAc
# In short: as §1
# [33] = target: Gal(b1-4)GlcNAc(b1-6)[Gal(b1-3)]GalNAc
# In short: as §1
# [34] = target: Gal(b1-4)GlcNAc(b1-6)[Gal(b1-4)GlcNAc(b1-3)]GalNAc
# In short: as §1
# Gal(b1-4)GlcNAc6P = target: Gal(b1-4)GlcNAc6P
# In short: as §1
# Gal(b1-6)Gal = target: Gal(b1-6)Gal
# In short: as §1
# Gal3S(b1-3)GalNAc = target: Gal3S(b1-3)GalNAc
# In short: as §1
# Gal3S(b1-3)GlcNAc = target: Gal3S(b1-3)GlcNAc
# In short: as §1
binder,measurement,setting,value
"Erv46-EDTA (Saccharomyces cerevisiae), P39727 (protein) MKFLVNVALVFMVVYISYIYAAAPEHHHHHHDYDIPTTENLYFQGAMDSVVTRPQLVVDRDRHAKLELNMDVTFPSMPCDLVNLDIMDDSGEMQLDILDAGFTMSRLNSEGRPVGDATELHVGGNGDGTAPVNNDPNYCGPCYGAKDQSQNENLAQEEKVCCQDCDAVRSAYLEAGWAFFDGKNIEQCEREGYVSKINEHLNEGCRIKGSAQINRIQGNLHFAPGKPYQNAYGHFHDTSLYDKTSNLNFNHIINHLSFGKPIQSHSKLLGNDKRHGGAVVATSPLDGRQVFPDRNTHFHQFSYFAKIVPTRYEYLDNVVIETAQFSATFHSRPLAGGRDKDHPNTLHVRGGIPGMFVFFEMSPLKVINKEQ",glycan array binding signal (z-score),[1],0.123
same,glycan array binding signal (z-score),[2],0.319
same,glycan array binding signal (z-score),[3],-0.066
same,glycan array binding signal (z-score),[4],-0.17
same,glycan array binding signal (z-score),[5],-0.539
same,glycan array binding signal (z-score),[6],-0.525
same,glycan array binding signal (z-score),[7],-0.513
same,glycan array binding signal (z-score),[8],4.93
same,glycan array binding signal (z-score),[9],1.81
same,glycan array binding signal (z-score),[10],2.71
same,glycan array binding signal (z-score),[11],2.65
same,glycan array binding signal (z-score),[12],0.66
same,glycan array binding signal (z-score),[13],3.36
same,glycan array binding signal (z-score),[14],0.623
same,glycan array binding signal (z-score),[15],0.628
same,glycan array binding signal (z-score),[16],0.46
same,glycan array binding signal (z-score),[17],0.506
same,glycan array binding signal (z-score),[18],2.05
same,glycan array binding signal (z-score),[19],0.249
same,glycan array binding signal (z-score),[20],1.81
same,glycan array binding signal (z-score),[21],1.32
same,glycan array binding signal (z-score),[22],1.41
same,glycan array binding signal (z-score),[23],2.4
same,glycan array binding signal (z-score),[24],0.347
same,glycan array binding signal (z-score),[25],-0.202
same,glycan array binding signal (z-score),[26],0.231
same,glycan array binding signal (z-score),[27],-0.116
same,glycan array binding signal (z-score),[28],-0.11
same,glycan array binding signal (z-score),[29],-0.821
same,glycan array binding signal (z-score),[30],-0.81
same,glycan array binding signal (z-score),[31],-0.78
same,glycan array binding signal (z-score),[32],0.987
same,glycan array binding signal (z-score),[33],-0.3
same,glycan array binding signal (z-score),[34],-0.11
same,glycan array binding signal (z-score),Gal(b1-4)GlcNAc6P,-0.826
same,glycan array binding signal (z-score),Gal(b1-6)Gal,-0.241
same,glycan array binding signal (z-score),Gal3S(b1-3)GalNAc,0.736
same,glycan array binding signal (z-score),Gal3S(b1-3)GlcNAc,-0.252

# Reprinted from the results shown for reference:
binder,measurement,setting,value
"Erv46-EDTA (Saccharomyces cerevisiae), P39727 (protein) MKFLVNVALVFMVVYISYIYAAAPEHHHHHHDYDIPTTENLYFQGAMDSVVTRPQLVVDRDRHAKLELNMDVTFPSMPCDLVNLDIMDDSGEMQLDILDAGFTMSRLNSEGRPVGDATELHVGGNGDGTAPVNNDPNYCGPCYGAKDQSQNENLAQEEKVCCQDCDAVRSAYLEAGWAFFDGKNIEQCEREGYVSKINEHLNEGCRIKGSAQINRIQGNLHFAPGKPYQNAYGHFHDTSLYDKTSNLNFNHIINHLSFGKPIQSHSKLLGNDKRHGGAVVATSPLDGRQVFPDRNTHFHQFSYFAKIVPTRYEYLDNVVIETAQFSATFHSRPLAGGRDKDHPNTLHVRGGIPGMFVFFEMSPLKVINKEQ",glycan array binding signal (z-score),[33],-0.3
same,glycan array binding signal (z-score),[34],-0.11
